# Earlier results, collected in patent publication US20230037103A1, “USE OF A COMPOUND OF 4-(3-ETHOXY-4-HYDROXYPHENYL) ALKYL KETONE TYPE AGAINST BACTERIA OF THE BURKHOLDERIA CEPACIA COMPLEX” (L’OREAL, priority 2019, published 2023).
# System: bacteria of the Bcc complex
# Settings: levels used in industry; cited from earlier work
structure (smiles),measurement,value
CC(C)(C)CC(C)(C)c1ccc(OCCOCC[N+](C)(C)Cc2ccccc2)cc1 [benzethonium chloride],efficacy with respect to contamination by bacteria of the Bcc complex,ineffective
